Results on 1 molecule are retold here after US20060177440A1.

The chains behind the UniProt entries cited, without tags or fusion partners. Residues count along the entry.
UniProt Q02161, residues 2-417: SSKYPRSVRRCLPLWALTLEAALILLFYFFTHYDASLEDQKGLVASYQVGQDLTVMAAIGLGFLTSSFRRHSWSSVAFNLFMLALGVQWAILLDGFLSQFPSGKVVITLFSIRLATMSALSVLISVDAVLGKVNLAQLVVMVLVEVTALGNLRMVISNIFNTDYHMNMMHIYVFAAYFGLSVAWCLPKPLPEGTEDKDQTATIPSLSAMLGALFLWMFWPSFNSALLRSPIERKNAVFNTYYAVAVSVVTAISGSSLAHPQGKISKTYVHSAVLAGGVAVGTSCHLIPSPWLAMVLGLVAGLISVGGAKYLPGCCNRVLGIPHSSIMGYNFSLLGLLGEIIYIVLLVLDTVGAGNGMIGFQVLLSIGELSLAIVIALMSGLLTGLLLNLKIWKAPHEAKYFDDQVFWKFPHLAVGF

No constants are given. Whether binding was seen depends on the method and setting. Some entries that bind do so weakly or less than the wild type.

The experiment addresses human Rh(D) antigen (human) (UniProt Q02161). Briefly: Fab/phage agglutination (anti-M13).

B1: SH36 (Fab, V domains shown)
VH: EVQLLESGGGVVQPGRSLRLSCEASKFTLYNYGMHWVRQAPGKGLEWVAFIWFDGSNKYYEDSVKGRFTVSRDNSKNTLYLQMNSLRAEDTAVYYCAREGSKKVALSRYYYYMDVWGQGTTVTVSS
VL: AELTQSPSSLSASVGDRVTITCRASQSISSYLNWYQQKPGKSPKLLIYAASSLQSGVPSRFSGSGSGTDFTLTISSLQPEDFATYYCQQSYSTPPAFGPGTKVDIKR
With B1, the binding result is reported as “binds”.
